In general, IC50 refers to the concentration that inhibits the measured activity by half.

Experiment [1] concerns SARS-CoV-2 expressing the mNeon reporter gene. The format is cell-based. The settings on record: read-out: IC50 against SARS-CoV-2.
The test system of a further experiment is VSV-SARS2. It is filed as cell-based. The settings on record: read-out: IC50 against VSV-SARS2.

In the case of `Cc1ccc(NC(=O)c2ccc(CN3CCN(C)CC3)cc2)cc1Nc1nccc(-c2cccnc2)n1` [Imatinib], the values for the IC50 (in experiment [1]; in the experiment with VSV-SARS2) were 12.8 µM and 6.9 µM, respectively.

Source of the values: paper PMC8315004, “Discovery of Small-Molecule Inhibitors of SARS-CoV-2 Proteins Using a Computational and Experimental Pipeline” (Frontiers in Molecular Biosciences, 2021).
